Source: patent publication US20250163176A1, “MONOCLONAL ANTIBODY AGAINST TROP2 AND USE THEREOF” (INSTITUTE OF MEDICAL BIOTECHNOLOGY, CHINESE ACADEMY OF …, priority 2022, published 2025)
No constants are given. Whether binding was seen depends on the method and setting. Some entries that bind do so weakly or less than the wild type.

Tests used:
Trop2 antigen [1] = target: T1, Trop2 antigen (human, UniProt P09758 27-274, limits assumed); experiment: Biacore SPR, anti-Trop2 antibody amine-coupled to a CM5 chip, Trop2 antigen as analyte
T1 construct: also called human trophoblast cell surface antigen 2; tumor-associated calcium signal transducer 2
T1 sequence (looked up): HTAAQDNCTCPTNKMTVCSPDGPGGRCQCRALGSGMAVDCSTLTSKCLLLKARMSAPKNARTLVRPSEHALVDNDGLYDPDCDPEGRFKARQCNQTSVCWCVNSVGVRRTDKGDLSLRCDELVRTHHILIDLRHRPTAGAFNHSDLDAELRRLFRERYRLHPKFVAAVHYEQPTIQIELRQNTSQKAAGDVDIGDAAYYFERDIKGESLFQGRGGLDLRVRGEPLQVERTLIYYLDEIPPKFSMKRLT

MDA-MB-231 (human) [2] = target: MDA-MB-231 (human) (UniProt P09758); experiment: flow cytometry on MDA-MB-231 cells, FITC goat anti-mouse IgG
MDA-MB-231 (human) [3] = target: MDA-MB-231 (human) (UniProt P09758); experiment: immunofluorescence on fixed MDA-MB-231 cells, antibody at 10 µg/mL, rhodamine goat anti-mouse IgG
Trop2 antigen [4] = target: T1, Trop2 antigen; experiment: indirect ELISA, dilution series of the antibody (x axis: dilution rate, no concentration)
Trop2 antigen [5] = target: T1, Trop2 antigen; experiment: indirect ELISA, Trop2 antigen coated at 0.4, 0.2 and 0.1 µg/ml

binding (Trop2 antigen [1]): binds | binding (MDA-MB-231 (human) [2]): binds | binding (MDA-MB-231 (human) [3]): binds | binding (Trop2 antigen [4]): binds | binding (Trop2 antigen [5]): binds
B1: anti-Trop2 monoclonal antibody IMB1636 (antibody, V domains shown)
VH: QVQLQQSGAELVRPGTSVKISCKASGYTFTNYWLGWVKQRPGHGLEWIGNIFPGGGYTNYNEKFKGKAILTADTSSSTAYMQLSSLTSEDSGVYFCAREGVMDYWGQGTTLTVSS
VL: DILLTQSPAILSVSPGERVSFSCRASQNIGTSIHWYQQRTNGFPRLLIKYASESISGIPSRFSGSGSGTDFTLSINSVESEDIADYYCQQSYSWPFTFGSGTKLEIK
notes: also called mouse-derived anti-Trop2 monoclonal antibody; anti-Trop2 antibody
